# US20240118269
# The chains behind the UniProt entries cited, without tags or fusion partners. Residues count along the entry.
# UniProt P16860, 103-134: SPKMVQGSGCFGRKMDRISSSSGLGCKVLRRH
# A negative result means that nothing was seen under these conditions.
# Target: B-type natriuretic peptide (BNP) (Homo sapiens) (UniProt P16860)
# Assay: binding assay
# Conditions: 3' TEG-cholesterol on S11 and S12, -400 mV, purified recombinant protein, protein details: recombinant human BNP, Abcam ab87200, folded or branched DNA
Sequence,"binding result (H+ current through nanopores in supported lipid bilayer falls from -90±3 to -51±1 nA with 5x BNP (30 nM nanopore), PBS pH 7.5)",binding result (no appreciable H+ current change (-96±9 nA) with same BNP concentration)
GGCGATTCGTGATCTCTGCTCTCGGTTTCGCGTTCGTTCGTCCACGTTCTTTAATAGTGGACTCTTGTTCCAAACTGGAACAAAA / AAAGGCTATTCTTTTGATTTATAAGGGATTTTGCCGATTTCGGAAAAA / AAAACAGGATTTTCGCCTGCTGGGGCAAACCAGCGTGGACCGCTTAAA / GGCGATTCGTGATCTCTGCTCTCGGTTTCGCGTTCGTTCGCAACTCTCTCAGGGCCAGGCGGTGAAGGGCAATCAGCTGTTGAAA / AAATCTCACTGGTGAAAAGAAAAACCACCCTGGCGCCCAATACGCAAA / AAATCCCCGCGCGTTGGCCGATTCATTAATGCAGCTGGCACGACAAAA / AGAGTTGGCGTATTGCGGGGA / TGTCGTGACGTGGATTCCGAAATCGGCAGGCGAAATGATTGCCCTTCAC / TCCACTATTAAAGACCAGCTGTTTCACCAGTGAGACAACAGCATCCTGT / AAGCGGTAATAGCCTGTTCCA / GAATCGGACAAGAGTTATAAATCAAAAGCCACGCTCCCTGAG / CGCCTGGGGTTTGCCCCAGCAAAATCCC / GTTTGGACCAACGCGGGCGCCAGGGTGGTTTTTCTCATTAAT,binds,
AAATCCACGTTCTTTAATAGTGGACTCTTGTTCCAAACTGGAACAAAA / AAAGGCTATTCTTTTGATTTATAAGGGATTTTGCCGATTTCGGAAAAA / AAAACAGGATTTTCGCCTGCTGGGGCAAACCAGCGTGGACCGCTTAAA / AAACAACTCTCTCAGGGCCAGGCGGTGAAGGGCAATCAGCTGTTGAAA / AAATCTCACTGGTGAAAAGAAAAACCACCCTGGCGCCCAATACGCAAA / AAATCCCCGCGCGTTGGCCGATTCATTAATGCAGCTGGCACGACAAAA / AGAGTTGGCGTATTGCGGGGA / TGTCGTGACGTGGATTCCGAAATCGGCAGGCGAAATGATTGCCCTTCAC / TCCACTATTAAAGACCAGCTGTTTCACCAGTGAGACAACAGCATCCTGT / AAGCGGTAATAGCCTGTTCCA / GAATCGGACAAGAGTTATAAATCAAAAGCCACGCTCCCTGAG / CGCCTGGGGTTTGCCCCAGCAAAATCCC / GTTTGGACCAACGCGGGCGCCAGGGTGGTTTTTCTCATTAAT [6HB-2C DNA nanopore (no aptamer)],,no binding
